PubChem BioAssay AID1671195 – Yale University | 2021

Screen: 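Genes whose knockdown alters LDL uptake in liver cancer cells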 (primary screen)
System: human Huh7 hepatoma cells
Knock-down reagent: siRNA pool against human genes, 18 nM
Timing: about 2 to 2.5 days of knockdown, then 8 h LDL uptake
Challenge: DiI-labelled LDL at 30 µg/ml for 8 h, in lipoprotein-deficient serum medium
Read-out: 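Fluorescent LDL signal imaged in cells, scaled to the plate median, robust z-score for each replicate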
Scale: robust z-score: higher = more LDL uptake after knockdown
Rule for the call: 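a gene counts as active if at least two replicate z-scores exceed ±2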
Shown is one part, drawn at random, of about 22,000 reagents tested. About 1,510 of them (6.9%) count as active. 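Active includes knockdowns raising or lowering LDL uptake; positive z-scores mean more uptake, negative mean less.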 Entries without a mark were called inactive. Reagents against one gene are numbered here.

target | reagent | robust z-score, replicate 1 | robust z-score, replicate 2 | robust z-score, replicate 3
ZNF517 | 1 | -0.173 | 0.0398 | 0.0229
LOC440417 (retired record) | 1 | -0.988 | -1.21 | -1.54
OGG1 | 1 | -1.9 | -1.21 | -1.49
FBXW10B | 1 | -0.897 | -0.811 | -1.14
DPYSL3 | 1 | -0.264 | -0.555 | -0.502
ANP32A | 1 | -0.453 | -0.37 | -0.194
ADGRF5 | 1 | 0.0749 | 1.03 | 0.259
FOXN4 | 1 | 3.16 (active) | 2.25 | 3.1
COPS6 | 1 | -0.327 | -0.87 | 0.833
IFI16 | 1 | 1.47 | 1.65 | 1.83
ACP5 | 1 | 0.147 | -0.0128 | 0.381
TMEM86B | 1 | -1.61 | -2.45 | 2.89
PRR23C | 1 | -0.325 | -0.989 | -0.827
BACE2 | 1 | -2.18 (active) | -1.7 | -1.91
TARS2 | 1 | -1.19 | -1.17 | -1.14
CST4 | 1 | -0.159 | -0.75 | -0.627
KCND1 | 1 | -1.88 | -1.76 | -1.95
SMU1 | 1 | -0.534 | 2.07 | 0.22
GRIN2B | 1 | -0.787 | -0.799 | -0.547
USP6NL | 1 | 1.07 | 2.9 | 1.08
TMEM273 | 1 | -1.02 | -0.748 | -0.598
LOC147294 (retired record) | 1 | -0.902 | -0.265 | -0.661
ZNF543 | 1 | -2.37 (active) | -2.22 | -2.49
SCLT1 | 1 | -0.0299 | -0.545 | -0.0533
OR5M11 | 1 | -0.52 | -0.117 | -0.293
ANKRD11 | 1 | 3.53 | 0.919 | 1.47
LOC387823 (retired record) | 1 | -0.459 | -0.359 | -0.52
ADAM2 | 1 | 0.262 | -0.166 | 0.737
DEFB124 | 1 | 0.0306 | -0.0867 | -0.235
ADIPOR1 | 1 | -0.705 | -0.689 | -0.876
CDC14B | 1 | 0.62 | 0.71 | 0.844
ELOVL3 | 1 | 0.744 | 0.698 | 1.04
L1TD1 | 1 | 0.261 | 0.185 | 0.0429
CLCNKB | 1 | 1.08 | 0.387 | 1.62
MFSD2B | 1 | -1.4 | -1.9 | -1.76
PRDM1 | 1 | 1.07 | 1.16 | 0.826
RAB38 | 1 | 0.125 | -0.749 | -0.693
HMGB1P15 | 1 | -0.429 | 0.652 | 0.796
RIGI | 1 | -0.828 | -0.917 | -0.825
ZNF337 | 1 | 0.646 | -0.0239 | 1.54
LOC387846 (retired record) | 1 | 1.11 | 0.651 | 0.599
ZNF213 | 1 | -0.637 | -0.0885 | -0.161
CCDC59 | 1 | -0.189 | -2.33 | -0.605

Continued, starting with the last 7 of the part before.
target | reagent | robust z-score, replicate 1 | robust z-score, replicate 2 | robust z-score, replicate 3
RAB38 | 1 | 0.125 | -0.749 | -0.693
HMGB1P15 | 1 | -0.429 | 0.652 | 0.796
RIGI | 1 | -0.828 | -0.917 | -0.825
ZNF337 | 1 | 0.646 | -0.0239 | 1.54
LOC387846 (retired record) | 1 | 1.11 | 0.651 | 0.599
ZNF213 | 1 | -0.637 | -0.0885 | -0.161
CCDC59 | 1 | -0.189 | -2.33 | -0.605
ATP4A | 1 | -0.116 | -0.508 | -0.443
C15orf32 | 1 | -0.224 | 0.647 | -0.333
LRFN2 | 1 | 1.95 (active) | 3.48 | 2.56
PLEKHG4B | 1 | -2.08 | -1.8 | -1.66
LOC400846 (retired record) | 1 | 2.29 (active) | 2.17 | 1.27
CROCCP3 | 1 | -0.375 | -2.09 | -1.49
IGFL4 | 1 | -0.665 | -0.401 | -0.358
IGFL4 | 2 | -1.75 | -2.07 | -1.49
ANO6 | 1 | 0.981 | 0.343 | -0.0396
HNRNPL | 1 | 0.578 | 0.19 | -0.0823
RPL17 | 1 | -1.82 | -2.07 | -1.29
LOC442120 (retired record) | 1 | 0.348 | -0.0646 | 0.579
PHACTR2-AS1 | 1 | -0.321 | -0.0331 | -0.103
DORIP1 | 1 | 1.52 | 1.94 | 0.538
DENND2D | 1 | 0.0453 | 0.677 | 0.644
SLC26A3 | 1 | -1.77 | -1.79 | -1.45
ZZZ3 | 1 | -0.198 | 0.0989 | 0.728
ATPSCKMT | 1 | 0.275 | 0.0102 | 0.727
PTGER1 | 1 | -0.449 | 0.153 | -0.0681
CCDC63 | 1 | 0.708 | 0.778 | 0.556
SPACA6 | 1 | 2.18 (active) | 2.38 | 1.19
LOC338749 (retired record) | 1 | 3.18 (active) | 2.41 | 2.76
ZNF467 | 1 | 0.338 | 0.281 | 0.142
NPSR1 | 1 | 0.659 | 0.338 | 0.688
BIN3-IT1 | 1 | -0.291 | -0.162 | -0.07
